We go through one compound from patent US11981675B1, “Pyrrolo[3,2-C]quinoline-2,3-dione compounds as CK2 inhibitors” (KING FAISAL UNIVERSITY, priority 2023, dated 2024).

Holding throughout (assay type): cell-based
Assay [1] deals with HL60 (leukemia). As to the kind of experiment: In vitro cytotoxic activity assay (MTT), HL60. The settings on record: Homo sapiens, HL-60; HL60 (leukemia) cells, exposed for 96 hours; read-out: Cytotoxicity activity IC50 (50% inhibition of cell proliferation). On the procedure: (§1) Compounds 1-16 were screened for their in vitro cytotoxic activity utilizing a 3-(4,5-dimethyl-thiazol-2-yl)-2,5-diphenyltetrazolium bromide (MTT) assay against selected cancer human cell lines consisting of PC3 (prostate), HCT116 (colon), A375 (melanoma), H1299 (lung), MIAPaCa-2 (pancreas), HL60 (leukemia), MCF7 (breast), MDA-MB-231 (breast) (T. Mosmann, J. Immunol. Meth., 1983, 65, 55-63). The cells were cultured at 37° C. in RMPI1640 medium supplemented with 10% fetal bovine serum, 50 IU/mL penicillin, and 50 μg/mL streptomycin in a 5% CO2 incubator. All cells were sub-cultured 3 times/week by trypsinisation. Viable cells were seeded and allowed to adhere for 12 h before a test drug was added in 96-well plates at an initial density of 1.0×10^5 cells/mL. Tumor cell lines were separately exposed to various concentrations of the tested compounds followed by incubation at a temperature of 37° C. during 96 hours inside a medium of fresh RMPI 1640. Cells were subsequently incubated at 37° C. using MTT at 0.5 mg/mL during 4 hours. After removal of supernatant, formazan crystals were dissolved in isopropanol and the optical density was measured at 570 nm. CX-4945 was used as a positive control.

Assay [2] has as its system H1299 (lung). As to the kind of experiment: In vitro cytotoxic activity assay (MTT), H1299. The settings on record: Homo sapiens, NCI-H1299; H1299 (lung) cells, exposed for 96 hours; read-out: Cytotoxicity activity IC50 (50% inhibition of cell proliferation). On the procedure:
as §1

Assay [3] concerns A375 (melanoma). In words: In vitro cytotoxic activity assay (MTT), A375. Particulars: Homo sapiens, A-375; A375 (melanoma) cells, exposed for 96 hours; read-out: Cytotoxicity activity IC50 (50% inhibition of cell proliferation). On the procedure: as §1
The subject of assay [4] is MCF7 (breast). In words: In vitro cytotoxic activity assay (MTT), MCF7. Particulars: Homo sapiens; MCF7 (breast) cells, exposed for 96 hours; read-out: Cytotoxicity activity IC50 (50% inhibition of cell proliferation). On the procedure:
as §1

The test system of assay [5] is MIAPaCa-2 (pancreas). In words: In vitro cytotoxic activity assay (MTT), MIAPaCa-2. The settings on record: Homo sapiens, MIA PaCa-2; MIAPaCa-2 (pancreas) cells, exposed for 96 hours; read-out: Cytotoxicity activity IC50 (50% inhibition of cell proliferation). On the procedure: as §1
The subject of assay [6] is MDA-MB-231 (breast). In words: In vitro cytotoxic activity assay (MTT), MDA-MB-231. The settings on record: Homo sapiens; MDA-MB-231 (breast) cells, exposed for 96 hours; read-out: Cytotoxicity activity IC50 (50% inhibition of cell proliferation). On the procedure:
as §1

Assay [7] has as its system HCT116 (colon). As to the kind of experiment: In vitro cytotoxic activity assay (MTT), HCT116. The settings on record: Homo sapiens, HCT-116; HCT116 (colon) cells, exposed for 96 hours; read-out: Cytotoxicity activity IC50 (50% inhibition of cell proliferation). On the procedure: as §1
Assay [8] has as its system PC3 (prostate). As to the kind of experiment: In vitro cytotoxic activity assay (MTT), PC3. Particulars: Homo sapiens, Prostate cell; PC3 (prostate) cells, exposed for 96 hours; read-out: Cytotoxicity activity IC50 (50% inhibition of cell proliferation). On the procedure:
as §1

For `O=C(O)c1ccc2c(c1)nc(Nc1cccc(Cl)c1)c1ccncc12` [CX-4945, reference compound], the IC50 in assay [1] came out at 3.7 µM; in assay [2], 2300 nM; in assay [3], 4.1 µM; in assay [4], 9.1 µM; in assay [5] it was 1000 nM; in assay [6], 6.2 µM. The IC50 stood at 2300 nM in assay [7] and 2000 nM in assay [8].
